Where a name gives a salt, the structure may show the parent alone. The list shows a part of the results. Single values of this set are uncertain.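 Yeast growth was read as optical density at 600 nm. The two-hybrid strains grew without histidine, so growth needed the Pex3–Pex19 binding; a compound counted as trypanosome-selective if it cut growth of the trypanosome-pair strain by more than 65% and the human-pair strain by less than 65%.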
test system: Saccharomyces cerevisiae HF7c pdr5Δ; assay: general growth inhibition of yeast HF7c pdr5Δ in -Leu -Trp medium, relative to DMSO; higher = stronger general growth inhibition; conditions: 100 µM; 24 h

Row | Compound | general growth inhibition [%]
1 | CCCN1CCC[C@@H]2Cc3n[nH]cc3C[C@H]21 [(-)-Quinpirole hydrochloride] | 65.6
2 | c1ccc2c(c1)[I+]c1ccccc1-2 [Diphenyleneiodonium chloride] | 27.7
3 | NCC1(CC(=O)O)CCCCC1 [Gabapentin] | 33.2
4 | NCCc1c[nH]c2ccc(C(N)=O)cc12 [5-Carboxamidotryptamine maleate] | 42.5
5 | CC[C@H]1CN2CCc3cc(OC)c(OC)cc3[C@@H]2C[C@@H]1C[C@H]1NCCc2cc(OC)c(OC)cc21 [Emetine dihydrochloride hydrate] | 27
6 | CCCN1CCC[C@H](c2cccc(O)c2)C1 [R(+)-3PPP hydrochloride] | 51.9
7 | CC(N)C(O)c1ccc(O)c(O)c1 (single isomer, unassigned; (-)) [(-)-alpha-Methylnorepinephrine] | 54.3
8 | NCCc1ccc(S(=O)(=O)F)cc1 [4-(2-Aminoethyl)benzenesulfonyl fluoride hydrochloride] | 42.7
9 | CCC1(C2=NCCN2)Cc2ccccc2O1 (stereo not drawn) [Efaroxan hydrochloride] | 32.7
10 | OCc1cnc[nH]1 [4-Imidazolemethanol hydrochloride] | 40.4
11 | CC[C@@H](CO)NC(=O)[C@@H]1C=C2c3cccc4[nH]cc(c34)C[C@H]2N(C)C1 [Methylergonovine maleate] | 32.6
12 | Cc1cc2c(C(C)C)c(O)c(O)c(C=O)c2c(O)c1-c1c(C)cc2c(C(C)C)c(O)c(O)c(C=O)c2c1O [Gossypol] | 36.2
13 | O=C1CC[C@@]2(O)[C@H]3Cc4ccc(O)c5c4[C@@]2(CCN3CC2CC2)[C@H]1O5 [Naltrexone hydrochloride] | 48.4
14 | COc1ccc(C(=O)N2CCCC2=O)cc1 [Aniracetam] | 50.7
15 | C[C@H](N)CN1CCc2ccc(Br)cc21 [VER-3323 hemifumarate salt] | 35.8
16 | C[N+]1(C)C2CCC1CC(OC(=O)c1c[nH]c3ccccc13)C2 (stereo not drawn) [3-Tropanylindole-3-carboxylate methiodide] | 12.5
17 | CC(Cc1ccc(OCC(=O)O)cc1)NCC(O)c1cccc(Cl)c1 (stereo not drawn) | 48.6
18 | CCn1cnc2c(Nc3cccc(Cl)c3)nc(N[C@@H]3CCCC[C@@H]3N)nc21 | 24.8
19 | CC(C)NC(C)Cc1ccc(I)cc1 (stereo not drawn) [Iofetamine hydrochloride] | 43.5
20 | NCCCP(=O)(O)O [3-Aminopropylphosphonic acid] | 30.8

Row | Compound | general growth inhibition [%]
21 | Cc1cccc(C)c1NC(=O)CN1CCCC1=O [Nefiracetam] | 41.7
22 | CN1CC[C@@]2(C)c3cc(OC(=O)Nc4ccccc4)ccc3N(C)[C@@H]12 [Phenserine] | 36.6
23 | Cn1c(CCCC(=O)O)nc2cc(N(CCCl)CCCl)ccc21 [Bendamustine hydrochloride] | 28.6
24 | O=C1/C(=C/c2ccccc2)C[C@@]2(O)[C@H]3Cc4ccc(O)c5c4[C@@]2(CCN3CC2CC2)[C@H]1O5 [BNTX maleate salt hydrate] | 40.3
25 | CCOC(=O)c1ncn2c1[C@@H]1CCCN1C(=O)c1cc(OC)ccc1-2 | 46.2
26 | COC[C@H]1OC(=O)c2coc3c2[C@@]1(C)C1=C(C3=O)[C@@H]2CCC(=O)[C@@]2(C)C[C@H]1OC(C)=O [Wortmannin from Penicillium funiculosum] | 91.4
27 | CN(C)C(=O)Oc1ccc[n+](C)c1 [Pyridostigmine bromide] | 46.7
28 | C[C@@H]1O[C@H](C[N+](C)(C)C)C[C@H]1O (racemic) [(±)-Muscarine chloride] | 41.8
29 | CC1(C(=O)O)C2CCC(O2)C1(C)C(=O)O (stereo not drawn) [Cantharidic Acid] | 77
30 | c1ccc(C2CC2)c(OCC2=NCCN2)c1 [Cirazoline hydrochloride] | 26
31 | CCCN1CCc2cc(O)cc3c2[C@H]1Cc1ccc(O)c(O)c1-3 [R(-)-2,10,11-Trihydroxy-N-propylnoraporphine hydrobromide] | 33
32 | N=C(N)NN [Aminoguanidine hemisulfate] | 51.9
33 | Cn1cnc(CCN)c1 [1-Methylhistamine dihydrochloride] | 49
34 | CC(C)c1cccc(C(C)C)c1O [Propofol] | 34.1
35 | C[C@@H](N)Cc1cnc[nH]1 [Histamine, R(-)-alpha-methyl-, dihydrochloride] | 26.7
36 | CCS(=O)(=O)Nc1cccc(C(=C2CCCCC2)c2cnc[nH]2)c1 | 50.1
37 | O=C(N[C@H]1CN2CCC1CC2)c1cc2ccoc2cn1 | 43
38 | CC(=O)NCCc1c[nH]c2ccccc12 [N-Acetyltryptamine] | 39.9
39 | CNCC(O)c1ccc(O)cc1 (racemic) [(±)-Synephrine] | 54.1

3 entries from above, tab-delimited.
Row	Compound	general growth inhibition [%]
25	CCOC(=O)c1ncn2c1[C@@H]1CCCN1C(=O)c1cc(OC)ccc1-2	46.2
26	COC[C@H]1OC(=O)c2coc3c2[C@@]1(C)C1=C(C3=O)[C@@H]2CCC(=O)[C@@]2(C)C[C@H]1OC(C)=O [Wortmannin from Penicillium funiculosum]	91.4
27	CN(C)C(=O)Oc1ccc[n+](C)c1 [Pyridostigmine bromide]	46.7

test system: human PEX3-PEX19 interaction (yeast two-hybrid); assay: growth inhibition of yeast two-hybrid strain reporting HsPex3-HsPex19 interaction, relative to DMSO; higher = stronger inhibition of human Pex3-Pex19 interaction / growth; conditions: 100 µM; 24 h; 3-aminotriazole 10 mM

Row | Compound | growth inhibition [%]
40 | CCCN1CCC[C@@H]2Cc3n[nH]cc3C[C@H]21 [(-)-Quinpirole hydrochloride] | 47.7
41 | c1ccc2c(c1)[I+]c1ccccc1-2 [Diphenyleneiodonium chloride] | 42.5
42 | NCC1(CC(=O)O)CCCCC1 [Gabapentin] | 36.9
43 | NCCc1c[nH]c2ccc(C(N)=O)cc12 [5-Carboxamidotryptamine maleate] | 30.3
44 | CC[C@H]1CN2CCc3cc(OC)c(OC)cc3[C@@H]2C[C@@H]1C[C@H]1NCCc2cc(OC)c(OC)cc21 [Emetine dihydrochloride hydrate] | 45.9
45 | CCCN1CCC[C@H](c2cccc(O)c2)C1 [R(+)-3PPP hydrochloride] | 51
46 | CC(N)C(O)c1ccc(O)c(O)c1 (single isomer, unassigned; (-)) [(-)-alpha-Methylnorepinephrine] | 51.6
47 | NCCc1ccc(S(=O)(=O)F)cc1 [4-(2-Aminoethyl)benzenesulfonyl fluoride hydrochloride] | 40.7
48 | CCC1(C2=NCCN2)Cc2ccccc2O1 (stereo not drawn) [Efaroxan hydrochloride] | 42.9
49 | OCc1cnc[nH]1 [4-Imidazolemethanol hydrochloride] | 48.1
50 | CC[C@@H](CO)NC(=O)[C@@H]1C=C2c3cccc4[nH]cc(c34)C[C@H]2N(C)C1 [Methylergonovine maleate] | 30.9
51 | Cc1cc2c(C(C)C)c(O)c(O)c(C=O)c2c(O)c1-c1c(C)cc2c(C(C)C)c(O)c(O)c(C=O)c2c1O [Gossypol] | 27.9
52 | O=C1CC[C@@]2(O)[C@H]3Cc4ccc(O)c5c4[C@@]2(CCN3CC2CC2)[C@H]1O5 [Naltrexone hydrochloride] | 43.9
53 | COc1ccc(C(=O)N2CCCC2=O)cc1 [Aniracetam] | 46.2
54 | C[C@H](N)CN1CCc2ccc(Br)cc21 [VER-3323 hemifumarate salt] | 11.6
55 | C[N+]1(C)C2CCC1CC(OC(=O)c1c[nH]c3ccccc13)C2 (stereo not drawn) [3-Tropanylindole-3-carboxylate methiodide] | 12.6
56 | CC(Cc1ccc(OCC(=O)O)cc1)NCC(O)c1cccc(Cl)c1 (stereo not drawn) | 55.3
57 | CCn1cnc2c(Nc3cccc(Cl)c3)nc(N[C@@H]3CCCC[C@@H]3N)nc21 | 25.1
58 | CC(C)NC(C)Cc1ccc(I)cc1 (stereo not drawn) [Iofetamine hydrochloride] | 41.8
59 | NCCCP(=O)(O)O [3-Aminopropylphosphonic acid] | 34.5

Row | Compound | growth inhibition [%]
60 | Cc1cccc(C)c1NC(=O)CN1CCCC1=O [Nefiracetam] | 43.1
61 | CN1CC[C@@]2(C)c3cc(OC(=O)Nc4ccccc4)ccc3N(C)[C@@H]12 [Phenserine] | 37.8
62 | Cn1c(CCCC(=O)O)nc2cc(N(CCCl)CCCl)ccc21 [Bendamustine hydrochloride] | 33.9
63 | O=C1/C(=C/c2ccccc2)C[C@@]2(O)[C@H]3Cc4ccc(O)c5c4[C@@]2(CCN3CC2CC2)[C@H]1O5 [BNTX maleate salt hydrate] | 43.3
64 | CCOC(=O)c1ncn2c1[C@@H]1CCCN1C(=O)c1cc(OC)ccc1-2 | 42.6
65 | COC[C@H]1OC(=O)c2coc3c2[C@@]1(C)C1=C(C3=O)[C@@H]2CCC(=O)[C@@]2(C)C[C@H]1OC(C)=O [Wortmannin from Penicillium funiculosum] | 88.6
66 | CN(C)C(=O)Oc1ccc[n+](C)c1 [Pyridostigmine bromide] | 45.2
67 | C[C@@H]1O[C@H](C[N+](C)(C)C)C[C@H]1O (racemic) [(±)-Muscarine chloride] | 48.1
68 | CC1(C(=O)O)C2CCC(O2)C1(C)C(=O)O (stereo not drawn) [Cantharidic Acid] | 63.2
69 | c1ccc(C2CC2)c(OCC2=NCCN2)c1 [Cirazoline hydrochloride] | 50.6
70 | CCCN1CCc2cc(O)cc3c2[C@H]1Cc1ccc(O)c(O)c1-3 [R(-)-2,10,11-Trihydroxy-N-propylnoraporphine hydrobromide] | 31
71 | N=C(N)NN [Aminoguanidine hemisulfate] | 37.9
72 | Cn1cnc(CCN)c1 [1-Methylhistamine dihydrochloride] | 44.7
73 | CC(C)c1cccc(C(C)C)c1O [Propofol] | 41.9
74 | C[C@@H](N)Cc1cnc[nH]1 [Histamine, R(-)-alpha-methyl-, dihydrochloride] | 40.7
75 | CCS(=O)(=O)Nc1cccc(C(=C2CCCCC2)c2cnc[nH]2)c1 | 40.5
76 | O=C(N[C@H]1CN2CCC1CC2)c1cc2ccoc2cn1 | 38
77 | CC(=O)NCCc1c[nH]c2ccccc12 [N-Acetyltryptamine] | 38.5
78 | CNCC(O)c1ccc(O)cc1 (racemic) [(±)-Synephrine] | 44

Source: the supplement of paper PMC8326762, “A Small Molecule Inhibitor of Pex3–Pex19 Interaction Disrupts Glycosome Biogenesis and Causes Lethality in Trypanosoma brucei” (Frontiers in Cell and Developmental Biology, 2021)
